For series [1], the target named is FLAG-GATA3 (UniProt P23771). As to the kind of experiment: competition with a labelled probe. Particulars: AlphaScreen, EMSA: 4 C, 20 min, 4% polyacrylamide gel, protein translated in vitro, protein details: N-terminal FLAG. In general terms: Mobility shift assays separate free from complexed probe on a gel.
Another series concerns the target FLAG-GATA5 (UniProt Q9BWX5). The experiment in a line: AlphaScreen. Particulars: 150 mM NaCl, inhibited by pyrrothiogatain, IC50 about 50 uM; AlphaScreen: 100 mM Tris-HCl pH 8.0, 150 mM NaCl, 0.1% Tween 20, 1 mg/mL BSA, 26 C, 1 h; protein translated in vitro; protein details: FLAG; label: 5'-biotin.
For the next series, the target named is FLAG-GATA1 (UniProt P15976). As to the kind of experiment: AlphaScreen. The note with it: 150 mM NaCl; AlphaScreen: 100 mM Tris-HCl pH 8.0, 150 mM NaCl, 0.1% Tween 20, 1 mg/mL BSA, 26 C, 1 h; protein translated in vitro; protein details: FLAG; label: 5'-biotin. For orientation: Alpha assays give light when donor and acceptor beads are brought close together.

Amino acid sequences for entries named in this document (tags omitted). A change or cut given only in a name is not applied to a line headed by its entry.
UniProt P23771: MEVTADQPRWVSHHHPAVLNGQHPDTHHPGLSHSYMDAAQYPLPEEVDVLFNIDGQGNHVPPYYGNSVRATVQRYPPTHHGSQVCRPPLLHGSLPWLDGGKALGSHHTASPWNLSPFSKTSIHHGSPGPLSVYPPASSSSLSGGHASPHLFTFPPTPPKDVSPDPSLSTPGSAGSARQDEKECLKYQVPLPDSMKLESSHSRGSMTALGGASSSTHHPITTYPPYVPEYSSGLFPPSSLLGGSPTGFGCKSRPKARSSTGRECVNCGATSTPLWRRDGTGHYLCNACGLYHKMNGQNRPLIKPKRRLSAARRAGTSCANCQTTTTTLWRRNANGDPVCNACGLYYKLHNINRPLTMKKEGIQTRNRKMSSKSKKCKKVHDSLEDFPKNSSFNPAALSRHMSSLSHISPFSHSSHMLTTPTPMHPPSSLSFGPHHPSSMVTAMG
UniProt Q9BWX5: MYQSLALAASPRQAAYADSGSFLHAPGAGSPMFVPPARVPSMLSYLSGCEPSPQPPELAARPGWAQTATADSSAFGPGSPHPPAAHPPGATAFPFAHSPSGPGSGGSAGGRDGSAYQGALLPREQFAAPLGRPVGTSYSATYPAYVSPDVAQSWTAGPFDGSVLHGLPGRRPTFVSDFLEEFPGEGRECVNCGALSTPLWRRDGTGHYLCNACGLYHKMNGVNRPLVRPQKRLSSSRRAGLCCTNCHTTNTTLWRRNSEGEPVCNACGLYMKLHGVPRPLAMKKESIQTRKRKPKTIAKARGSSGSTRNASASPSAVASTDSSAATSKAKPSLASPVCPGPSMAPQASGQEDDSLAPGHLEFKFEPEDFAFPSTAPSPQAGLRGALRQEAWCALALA
UniProt P15976: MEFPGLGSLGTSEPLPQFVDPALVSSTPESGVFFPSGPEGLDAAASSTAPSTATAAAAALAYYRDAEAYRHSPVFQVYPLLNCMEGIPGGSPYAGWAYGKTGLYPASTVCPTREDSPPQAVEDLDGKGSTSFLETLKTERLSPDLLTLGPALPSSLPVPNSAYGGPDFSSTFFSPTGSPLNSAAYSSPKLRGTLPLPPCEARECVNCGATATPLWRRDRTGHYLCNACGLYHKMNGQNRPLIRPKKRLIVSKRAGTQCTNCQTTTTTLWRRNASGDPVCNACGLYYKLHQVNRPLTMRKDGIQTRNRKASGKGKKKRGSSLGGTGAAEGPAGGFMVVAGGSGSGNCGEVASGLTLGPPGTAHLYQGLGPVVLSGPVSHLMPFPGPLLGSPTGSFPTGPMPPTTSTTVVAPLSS
UniProt P43694: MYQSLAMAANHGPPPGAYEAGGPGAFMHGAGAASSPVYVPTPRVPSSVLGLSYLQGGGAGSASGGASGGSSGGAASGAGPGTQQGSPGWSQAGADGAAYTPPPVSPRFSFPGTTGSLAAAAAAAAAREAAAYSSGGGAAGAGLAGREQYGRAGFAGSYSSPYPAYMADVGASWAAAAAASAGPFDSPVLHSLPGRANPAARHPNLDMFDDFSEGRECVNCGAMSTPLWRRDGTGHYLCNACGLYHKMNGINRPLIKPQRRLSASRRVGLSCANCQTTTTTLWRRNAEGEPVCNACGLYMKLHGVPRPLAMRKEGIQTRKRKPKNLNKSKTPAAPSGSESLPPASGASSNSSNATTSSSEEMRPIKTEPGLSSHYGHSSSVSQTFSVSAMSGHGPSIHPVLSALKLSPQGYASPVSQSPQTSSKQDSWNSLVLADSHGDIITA

Series [2] has as its target FLAG-GATA3 (UniProt P23771). The experiment in a line: AlphaScreen. The note with it: AlphaScreen: 100 mM Tris-HCl pH 8.0, 150 mM NaCl, 0.1% Tween 20, 1 mg/mL BSA, 26 C, 1 h, protein translated in vitro, protein details: N-terminal FLAG, label: 5'-biotin.
A further series addresses T1, FLAG-GATA2 (UniProt P23769).
T1 sequence (looked up, limits assumed): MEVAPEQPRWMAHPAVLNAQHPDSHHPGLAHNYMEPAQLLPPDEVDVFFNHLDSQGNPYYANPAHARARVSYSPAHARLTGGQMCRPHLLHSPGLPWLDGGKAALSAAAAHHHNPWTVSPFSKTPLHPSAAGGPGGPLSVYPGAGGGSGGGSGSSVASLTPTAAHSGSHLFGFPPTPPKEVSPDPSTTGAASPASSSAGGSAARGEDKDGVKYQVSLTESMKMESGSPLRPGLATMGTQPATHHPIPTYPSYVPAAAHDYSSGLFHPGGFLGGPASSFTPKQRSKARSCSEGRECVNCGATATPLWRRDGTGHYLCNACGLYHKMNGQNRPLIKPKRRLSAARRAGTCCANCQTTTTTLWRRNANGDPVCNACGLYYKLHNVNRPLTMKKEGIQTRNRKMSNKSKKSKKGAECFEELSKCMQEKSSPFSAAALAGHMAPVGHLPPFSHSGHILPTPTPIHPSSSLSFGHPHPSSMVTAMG
As to the kind of experiment: AlphaScreen. The note with it: 150 mM NaCl, inhibited by pyrrothiogatain, IC50 about 50 uM; AlphaScreen: 100 mM Tris-HCl pH 8.0, 150 mM NaCl, 0.1% Tween 20, 1 mg/mL BSA, 26 C, 1 h; protein translated in vitro; protein details: FLAG; label: 5'-biotin.

For the next series, the target named is FLAG-GATA4 (UniProt P43694). As to the kind of experiment: AlphaScreen. The note with it: 150 mM NaCl, inhibited by pyrrothiogatain, IC50 about 50 uM; AlphaScreen: 100 mM Tris-HCl pH 8.0, 150 mM NaCl, 0.1% Tween 20, 1 mg/mL BSA, 26 C, 1 h; protein translated in vitro; protein details: FLAG; label: 5'-biotin.

The exact form of at least one protein or probe is not confirmed. For part of these data: No signal at the amounts used counts as a negative. For part of these data: Where a protein sequence is shown, tags need not be part of it.

Take “CACTTCTTAACAGAAAGTCTTAACTCT (double strand) [mutant DNA, non-labelled competitor]”: the binding result with FLAG-GATA3 [1] (vs 4 nM N1, 150 mM NaCl) was “no binding”.

Take “CACTTGATAACAGAAAGTGATAACTCT (double strand) [GATA3 consensus DNA (biotin)]”: the binding result in the series with FLAG-GATA5 is reported as “binds”; in the series with FLAG-GATA1 it was “no binding”; with FLAG-GATA3 [2] (150 mM NaCl), “binds”; with FLAG-GATA2, “binds”; with FLAG-GATA4, “binds”.

Consider “CACTTGATAACAGAAAGTGATAACTCT (double strand) [GATA consensus DNA, non-labelled]”, for which the binding result in the series with FLAG-GATA3 [1] (vs 4 nM N1, 0-250 nM competitor, 150 mM NaCl) is given as “binds”.

On to “CACTTCTTAACAGAAAGTCTTAACTCT (double strand) [MT (GATA-site mutant, biotin)]”, for which the binding result with FLAG-GATA3 [2] (150 mM NaCl, signal at background) was “no binding”; with FLAG-GATA3 [2] (100 and 125 mM NaCl, considerable non-specific signal) it was “binds”.

Source of the values: paper PMC6874683, “Pyrrothiogatain acts as an inhibitor of GATA family proteins and inhibits Th2 cell differentiation in vitro” (Scientific Reports, 2019).
